Compound in the test: CN[C@@H]1C[C@H]2O[C@@](C)([C@@H]1OC)n1c3ccccc3c3c4c(c5c6ccccc6n2c5c31)C(=O)NC4 [staurosporine]
The test is described as follows: log2 fold change of tryptic peptide abundance, ligand vs vehicle (limited proteolysis) (log2 ratio); higher = more trypsin-susceptible (destabilized). To be noted: ligand concentration: 20 uM; sample: K562 cleared lysate; digestion: 4 min, 22 C (HT-PELSA RT4min, Orbitrap Astral).

By UniProt entry, the sequences of proteins in these tests, tags left out. Where a name states a change or a piece, a line headed by the entry shows the natural chain unless it says otherwise.
UniProt Q9BSQ5: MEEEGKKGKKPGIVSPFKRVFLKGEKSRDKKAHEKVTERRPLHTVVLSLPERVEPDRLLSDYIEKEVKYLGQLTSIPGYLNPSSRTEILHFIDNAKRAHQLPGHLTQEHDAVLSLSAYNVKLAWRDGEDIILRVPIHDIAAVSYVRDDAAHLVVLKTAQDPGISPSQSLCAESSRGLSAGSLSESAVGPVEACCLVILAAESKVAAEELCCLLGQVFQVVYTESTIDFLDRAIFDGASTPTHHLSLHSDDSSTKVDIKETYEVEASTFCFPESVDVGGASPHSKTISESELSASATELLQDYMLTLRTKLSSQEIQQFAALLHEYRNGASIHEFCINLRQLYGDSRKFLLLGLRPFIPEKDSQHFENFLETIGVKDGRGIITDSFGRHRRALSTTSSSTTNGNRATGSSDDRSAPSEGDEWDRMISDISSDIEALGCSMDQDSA
UniProt Q9BTZ2: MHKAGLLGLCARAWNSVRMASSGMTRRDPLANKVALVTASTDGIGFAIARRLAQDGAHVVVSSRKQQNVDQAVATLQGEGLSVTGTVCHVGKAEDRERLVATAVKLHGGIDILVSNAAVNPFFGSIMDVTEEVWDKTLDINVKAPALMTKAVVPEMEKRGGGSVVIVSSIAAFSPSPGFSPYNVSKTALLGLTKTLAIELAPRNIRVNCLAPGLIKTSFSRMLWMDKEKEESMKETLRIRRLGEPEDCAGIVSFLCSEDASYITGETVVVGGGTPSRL
UniProt Q9BUA3: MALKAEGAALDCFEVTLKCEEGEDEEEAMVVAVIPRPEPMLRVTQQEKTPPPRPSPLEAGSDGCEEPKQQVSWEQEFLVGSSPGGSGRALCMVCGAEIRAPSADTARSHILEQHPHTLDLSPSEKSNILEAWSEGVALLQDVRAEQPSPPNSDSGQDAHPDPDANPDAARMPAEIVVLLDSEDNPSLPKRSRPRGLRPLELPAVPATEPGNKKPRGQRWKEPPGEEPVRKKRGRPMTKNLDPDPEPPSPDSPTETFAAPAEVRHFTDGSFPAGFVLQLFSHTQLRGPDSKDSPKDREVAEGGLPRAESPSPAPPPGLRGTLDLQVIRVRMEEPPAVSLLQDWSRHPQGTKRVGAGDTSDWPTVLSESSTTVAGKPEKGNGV
UniProt Q9BVA1, whole entry: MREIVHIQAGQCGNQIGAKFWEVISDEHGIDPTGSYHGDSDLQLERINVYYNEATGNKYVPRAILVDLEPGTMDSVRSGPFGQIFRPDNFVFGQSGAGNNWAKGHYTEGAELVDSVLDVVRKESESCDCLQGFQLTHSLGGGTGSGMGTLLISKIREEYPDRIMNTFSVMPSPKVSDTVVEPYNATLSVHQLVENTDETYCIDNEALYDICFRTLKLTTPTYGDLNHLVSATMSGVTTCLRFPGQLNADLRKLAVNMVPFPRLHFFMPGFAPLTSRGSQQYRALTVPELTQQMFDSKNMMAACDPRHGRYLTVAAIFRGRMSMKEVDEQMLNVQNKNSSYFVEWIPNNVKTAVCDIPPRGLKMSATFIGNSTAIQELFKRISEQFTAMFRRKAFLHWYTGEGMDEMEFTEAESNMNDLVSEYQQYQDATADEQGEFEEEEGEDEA
UniProt Q9BPX3, whole entry, looked up: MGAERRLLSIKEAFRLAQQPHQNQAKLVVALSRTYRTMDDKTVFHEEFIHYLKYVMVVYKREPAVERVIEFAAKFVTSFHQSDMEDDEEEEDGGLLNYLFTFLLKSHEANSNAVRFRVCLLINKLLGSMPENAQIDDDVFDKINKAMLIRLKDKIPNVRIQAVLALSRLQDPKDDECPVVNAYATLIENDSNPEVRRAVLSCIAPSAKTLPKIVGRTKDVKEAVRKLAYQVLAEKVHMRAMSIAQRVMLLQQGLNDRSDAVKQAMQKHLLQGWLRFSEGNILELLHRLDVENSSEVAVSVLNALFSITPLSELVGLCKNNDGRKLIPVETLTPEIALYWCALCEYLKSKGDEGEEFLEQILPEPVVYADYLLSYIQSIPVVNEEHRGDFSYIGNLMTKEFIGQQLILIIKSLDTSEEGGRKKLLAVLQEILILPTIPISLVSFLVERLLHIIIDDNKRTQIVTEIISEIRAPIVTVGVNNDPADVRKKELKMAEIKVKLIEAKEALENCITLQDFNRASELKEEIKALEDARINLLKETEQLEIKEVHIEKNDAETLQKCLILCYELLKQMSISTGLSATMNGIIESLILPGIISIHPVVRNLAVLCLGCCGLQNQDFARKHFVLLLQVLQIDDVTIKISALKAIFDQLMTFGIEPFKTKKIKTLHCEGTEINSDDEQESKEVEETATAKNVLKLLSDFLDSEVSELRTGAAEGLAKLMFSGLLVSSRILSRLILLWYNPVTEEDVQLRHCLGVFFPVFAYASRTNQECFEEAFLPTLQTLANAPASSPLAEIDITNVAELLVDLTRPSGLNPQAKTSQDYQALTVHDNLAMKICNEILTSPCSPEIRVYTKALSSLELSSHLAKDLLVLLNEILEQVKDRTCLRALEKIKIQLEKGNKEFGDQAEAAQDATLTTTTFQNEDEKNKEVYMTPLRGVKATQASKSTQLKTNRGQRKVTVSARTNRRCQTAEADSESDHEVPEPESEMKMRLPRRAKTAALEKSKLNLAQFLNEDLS
UniProt Q9BTA9: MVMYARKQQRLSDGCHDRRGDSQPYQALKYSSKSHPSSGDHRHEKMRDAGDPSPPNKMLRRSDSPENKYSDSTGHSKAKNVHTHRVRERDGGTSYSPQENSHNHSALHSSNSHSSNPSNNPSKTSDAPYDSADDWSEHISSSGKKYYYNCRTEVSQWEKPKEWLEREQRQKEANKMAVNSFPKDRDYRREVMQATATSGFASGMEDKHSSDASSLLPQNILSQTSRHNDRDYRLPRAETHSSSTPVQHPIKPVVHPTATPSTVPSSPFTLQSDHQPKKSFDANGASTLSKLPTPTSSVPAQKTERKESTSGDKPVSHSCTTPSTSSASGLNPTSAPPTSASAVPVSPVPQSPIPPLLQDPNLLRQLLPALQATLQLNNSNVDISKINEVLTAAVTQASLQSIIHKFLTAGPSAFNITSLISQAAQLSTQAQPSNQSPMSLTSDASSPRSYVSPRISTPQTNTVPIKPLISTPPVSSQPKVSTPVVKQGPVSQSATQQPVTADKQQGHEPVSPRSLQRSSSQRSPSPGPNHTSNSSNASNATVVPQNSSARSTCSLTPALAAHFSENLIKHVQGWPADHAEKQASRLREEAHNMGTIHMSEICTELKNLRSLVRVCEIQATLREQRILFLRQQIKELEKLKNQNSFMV
UniProt Q99704: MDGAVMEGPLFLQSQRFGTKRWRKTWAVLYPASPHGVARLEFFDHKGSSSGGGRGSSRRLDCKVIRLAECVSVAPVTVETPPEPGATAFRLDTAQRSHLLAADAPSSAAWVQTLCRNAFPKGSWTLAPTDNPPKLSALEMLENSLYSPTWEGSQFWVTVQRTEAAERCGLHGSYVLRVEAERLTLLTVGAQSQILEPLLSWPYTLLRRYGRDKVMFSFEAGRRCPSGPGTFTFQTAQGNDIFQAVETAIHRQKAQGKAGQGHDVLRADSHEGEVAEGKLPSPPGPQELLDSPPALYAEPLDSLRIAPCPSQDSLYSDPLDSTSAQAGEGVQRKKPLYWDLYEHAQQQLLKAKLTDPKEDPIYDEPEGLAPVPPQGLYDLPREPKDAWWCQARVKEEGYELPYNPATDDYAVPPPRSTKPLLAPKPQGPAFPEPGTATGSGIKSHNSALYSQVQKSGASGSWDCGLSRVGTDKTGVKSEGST
UniProt Q9BQ52: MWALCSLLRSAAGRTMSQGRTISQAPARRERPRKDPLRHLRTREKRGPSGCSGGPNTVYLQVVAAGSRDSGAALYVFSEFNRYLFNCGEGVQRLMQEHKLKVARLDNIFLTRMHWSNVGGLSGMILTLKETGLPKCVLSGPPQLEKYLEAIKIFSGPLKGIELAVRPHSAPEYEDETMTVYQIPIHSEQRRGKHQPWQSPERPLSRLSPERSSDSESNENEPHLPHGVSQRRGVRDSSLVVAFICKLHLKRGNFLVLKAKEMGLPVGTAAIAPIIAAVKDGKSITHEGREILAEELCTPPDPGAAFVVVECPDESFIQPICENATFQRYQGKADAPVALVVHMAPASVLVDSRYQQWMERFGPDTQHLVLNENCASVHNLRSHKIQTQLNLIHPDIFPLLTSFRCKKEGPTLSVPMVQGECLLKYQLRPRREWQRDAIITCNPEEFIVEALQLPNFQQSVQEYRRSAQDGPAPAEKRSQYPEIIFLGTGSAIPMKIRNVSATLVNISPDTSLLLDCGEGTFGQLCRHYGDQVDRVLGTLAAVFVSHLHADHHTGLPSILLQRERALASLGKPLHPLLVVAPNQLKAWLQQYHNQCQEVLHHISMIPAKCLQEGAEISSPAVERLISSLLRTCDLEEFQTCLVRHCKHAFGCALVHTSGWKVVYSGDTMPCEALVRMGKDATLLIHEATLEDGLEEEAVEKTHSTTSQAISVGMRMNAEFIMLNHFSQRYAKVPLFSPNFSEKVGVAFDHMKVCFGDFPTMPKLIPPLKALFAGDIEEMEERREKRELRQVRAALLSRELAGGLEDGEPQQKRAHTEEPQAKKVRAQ
UniProt Q9BVI0: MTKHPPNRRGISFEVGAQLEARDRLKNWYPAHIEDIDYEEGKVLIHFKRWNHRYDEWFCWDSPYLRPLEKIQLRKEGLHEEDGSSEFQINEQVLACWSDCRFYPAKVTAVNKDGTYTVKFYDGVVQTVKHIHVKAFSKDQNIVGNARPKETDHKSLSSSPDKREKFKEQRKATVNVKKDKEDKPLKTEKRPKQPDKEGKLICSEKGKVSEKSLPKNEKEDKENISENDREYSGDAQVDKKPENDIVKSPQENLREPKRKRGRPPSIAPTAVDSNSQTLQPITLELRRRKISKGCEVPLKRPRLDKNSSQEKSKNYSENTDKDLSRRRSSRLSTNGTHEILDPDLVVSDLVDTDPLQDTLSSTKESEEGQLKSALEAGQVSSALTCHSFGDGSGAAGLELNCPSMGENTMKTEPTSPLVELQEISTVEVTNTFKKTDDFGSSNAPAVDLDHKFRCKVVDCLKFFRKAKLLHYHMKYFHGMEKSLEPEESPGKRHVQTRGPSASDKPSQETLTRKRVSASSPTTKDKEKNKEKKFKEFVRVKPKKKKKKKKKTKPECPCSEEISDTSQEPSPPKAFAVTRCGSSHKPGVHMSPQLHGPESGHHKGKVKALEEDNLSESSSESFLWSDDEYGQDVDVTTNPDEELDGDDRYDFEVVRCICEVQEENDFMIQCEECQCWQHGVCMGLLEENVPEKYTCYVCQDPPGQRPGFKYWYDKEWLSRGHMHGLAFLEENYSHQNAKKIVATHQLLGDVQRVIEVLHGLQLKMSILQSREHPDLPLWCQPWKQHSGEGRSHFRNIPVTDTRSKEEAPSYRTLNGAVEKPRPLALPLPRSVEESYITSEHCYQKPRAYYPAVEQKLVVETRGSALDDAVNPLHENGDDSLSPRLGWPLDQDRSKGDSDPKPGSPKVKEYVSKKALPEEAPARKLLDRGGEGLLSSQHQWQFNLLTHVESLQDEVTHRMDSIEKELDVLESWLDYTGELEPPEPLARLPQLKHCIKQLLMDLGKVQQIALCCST
UniProt Q9BT49: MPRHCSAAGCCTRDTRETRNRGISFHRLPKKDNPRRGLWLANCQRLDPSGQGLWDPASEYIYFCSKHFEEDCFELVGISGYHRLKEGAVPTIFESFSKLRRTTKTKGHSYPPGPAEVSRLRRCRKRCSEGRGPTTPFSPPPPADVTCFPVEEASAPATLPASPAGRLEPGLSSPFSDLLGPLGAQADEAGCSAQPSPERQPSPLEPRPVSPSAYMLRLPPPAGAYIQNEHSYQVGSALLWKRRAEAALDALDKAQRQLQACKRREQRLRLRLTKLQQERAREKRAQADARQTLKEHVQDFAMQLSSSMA
UniProt Q9BSY4: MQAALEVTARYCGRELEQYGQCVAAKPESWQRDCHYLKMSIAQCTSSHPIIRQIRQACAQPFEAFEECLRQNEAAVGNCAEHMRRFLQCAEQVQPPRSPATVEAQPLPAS
UniProt Q9BTE3: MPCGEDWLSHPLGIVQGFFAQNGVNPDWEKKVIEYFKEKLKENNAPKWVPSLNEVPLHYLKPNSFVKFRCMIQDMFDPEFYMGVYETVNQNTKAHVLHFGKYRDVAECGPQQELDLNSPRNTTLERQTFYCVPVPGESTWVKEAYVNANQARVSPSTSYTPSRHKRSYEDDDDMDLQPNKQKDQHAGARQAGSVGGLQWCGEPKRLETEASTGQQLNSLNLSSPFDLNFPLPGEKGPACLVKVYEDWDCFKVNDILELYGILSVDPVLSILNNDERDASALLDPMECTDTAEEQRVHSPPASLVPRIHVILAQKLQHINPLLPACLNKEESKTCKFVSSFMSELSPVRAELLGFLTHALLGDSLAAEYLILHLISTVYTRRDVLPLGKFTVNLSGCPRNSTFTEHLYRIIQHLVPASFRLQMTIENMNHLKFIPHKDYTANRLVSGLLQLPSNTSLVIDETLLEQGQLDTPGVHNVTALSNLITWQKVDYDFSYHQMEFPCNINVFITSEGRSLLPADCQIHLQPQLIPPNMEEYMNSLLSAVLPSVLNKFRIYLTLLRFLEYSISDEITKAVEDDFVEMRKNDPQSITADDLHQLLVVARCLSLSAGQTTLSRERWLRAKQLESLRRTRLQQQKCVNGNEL

The other results are listed elsewhere or left out. Most entries show no effect beyond the scatter of the controls.

For “TSNAX (peptide sequence: TIFLLHR, peptide start residue: 70) (UniProt Q99598)”, the log2 fold change was 0.341. As for “ACAT2 (peptide sequence: EIVPVLVSTR, peptide start residue: 201) (UniProt Q9BWD1)”, the figure is -0.155; as for “UniProt Q9BQE5 (peptide sequence: ELEDHIR, peptide start residue: 91)”, 0.585. In the case of “UniProt Q9BS31 (peptide sequence: SYLGLTNQSR, peptide start residue: 113)” it was -0.31; in that of “CCM2 (peptide sequence: GIITDSFGR, peptide start residue: 379) (UniProt Q9BSQ5)”, -0.119; in that of “ARHGAP9 (peptide sequence: LCIAAVDKR, peptide start residue: 561) (UniProt Q9BRR9)”, 0.798.

For the target “UniProt Q9BRP8 (peptide sequence: RRALEEELEDLELGL, peptide start residue: 190)”, the log2 fold change was -0.411. “PKP4 (peptide sequence: TGSVGIGNLQR, peptide start residue: 445) (UniProt Q99569)”: the log2 fold change is -0.279.

In the case of “UniProt Q9BQ75 (peptide sequence: TKQPKECFLIQPK, peptide start residue: 49)”, the log2 fold change came out at 0.403. Take “DHRS4 (peptide sequence: LAQDGAHVVVSSR, peptide start residue: 52) (UniProt Q9BTZ2)”: the log2 fold change is -0.163.

With “UniProt Q9BSB4 (peptide sequence: IINIVEVMNR, peptide start residue: 152)”, the log2 fold change was 0.275. As for “C9orf16 (peptide sequence: NDHLHAR, peptide start residue: 49) (UniProt Q9BUW7)”, the figure is -0.0759; as for “UniProt Q99501 (peptide sequence: RPSGPAELGTWHALHSVTPR, peptide start residue: 655)”, -0.329.

With “UniProt Q9BUA3 (peptide sequence: GLRPLELPAVPATEPGNK, peptide start residue: 195)”, the log2 fold change is -0.256.

Consider “UniProt Q9BVA1 (peptide sequence: INVYYNEATGNKYVPR, peptide start residue: 47)”, for which the log2 fold change is -0.299. As to “NCAPG (peptide sequence: AIFDQLMTFGIEPFKTK, peptide start residue: 644) (UniProt Q9BPX3)”, the log2 fold change was -0.145.

Take “ARID3A (peptide sequence: ARQELEAR, peptide start residue: 17) (UniProt Q99856)”: the log2 fold change turned out to be 0.187. For the target “CDCA3 (peptide sequence: SPLTILQDDNSPGTLTLR, peptide start residue: 199) (UniProt Q99618)”, the log2 fold change was -0.0913. As for “WAC (peptide sequence: ISTPQTNTVPIKPLISTPPVSSQPK, peptide start residue: 455) (UniProt Q9BTA9)”, the figure is -0.234; as for “CITED2 (peptide sequence: FPDGTNGLHHHPAHR, peptide start residue: 13) (UniProt Q99967)”, -0.144; as for “SENP7 (peptide sequence: WTLPLQWER, peptide start residue: 57) (UniProt Q9BQF6)”, 0.104. In the case of “DOK1 (peptide sequence: TWAVLYPASPHGVAR, peptide start residue: 25) (UniProt Q99704)” it was -0.0936; in that of “VAT1 (peptide sequence: GYNLLKPMGK, peptide start residue: 272) (UniProt Q99536)”, 0.167; in that of “UniProt Q9BTT6 (peptide sequence: SLEELLLDANQLR, peptide start residue: 37)”, 0.115. In the case of “ELAC2 (peptide sequence: VPLFSPNFSEK, peptide start residue: 732) (UniProt Q9BQ52)” it was 0.217; in that of “PHF20 (peptide sequence: SVEESYITSEHCYQKPR, peptide start residue: 829) (UniProt Q9BVI0)”, -0.322; in that of “PAIP2 (peptide sequence: CFQEMLEEEEEHEWFIPAR, peptide start residue: 60) (UniProt Q9BPZ3)”, 0.641. In the case of “KIFC3 (peptide sequence: SLSALGDVIAALR, peptide start residue: 700) (UniProt Q9BVG8)”, the log2 fold change is -0.274. In the case of “THAP7 (peptide sequence: LKEGAVPTIFESFSK, peptide start residue: 84) (UniProt Q9BT49)” it was 0.134; in that of “ACBD6 (peptide sequence: PSFFDFEGK, peptide start residue: 85) (UniProt Q9BR61)”, 0.634. As for “CHCHD5 (peptide sequence: QNEAAVGNCAEHMR, peptide start residue: 71) (UniProt Q9BSY4)”, the figure is -0.531. As for “UniProt Q9BTE3 (peptide sequence: RSYEDDDDMDLQPNK, peptide start residue: 166)”, the figure is 0.583; as for “BCL7B (peptide sequence: WVTVGDTSLR, peptide start residue: 35) (UniProt Q9BQE9)”, -0.0312; as for “UniProt Q9BQP7 (peptide sequence: QQVFLLER, peptide start residue: 144)”, 0.157. For the target “UniProt Q99966 (peptide sequence: KAVAILHYPGVASNGTK, peptide start residue: 40)”, the log2 fold change was 0.246. As for “SLC39A3 (peptide sequence: GHALYVEPHGHGPSLSVQGLSR, peptide start residue: 143) (UniProt Q9BRY0)”, the figure is -0.0262; as for “PYGO2 (peptide sequence: EGMGQLVAANDG, peptide start residue: 395) (UniProt Q9BRQ0)”, -0.459.

The record behind these values is the supplement of paper PMC12819154, “High-throughput peptide-centric local stability assay extends protein–ligand identification to membrane proteins, tissues and bacteria” (Nature Structural & Molecular Biology, 2025).
